PubChem BioAssay AID1224828, NIAID, 2016
Aim: 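Regulators linking TLR4 signalling to p65 nuclear translocation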 (primary screen). Cells: mouse RAW264.7 G9 macrophage reporter cells (GFP-p65, Tnf promoter-mCherry). Knock-down reagent: siRNA pool against mouse genes, 100 nM. Timing: 2 days siRNA transfection, then 40 min LPS before fixation. Treatment: LPS (Salmonella minnesota R595) at 10 ng/ml. Measurement: 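Microscopy ratio of nuclear to perinuclear-ring GFP-p65 signal, scaled to the plate median; gene score is the average of two replicate robust z-scores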. Scale: p65 translocation robust z-score: higher = more nuclear NF-kappaB p65 after LPS than the plate median; nuclear/cytoplasmic p65 ratio: higher = more nuclear NF-kappaB p65. Rule for the call: 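Active if robust z is above 3.3 (negative regulators) or below -1.56, the Tlr4 control median (positive regulators); activity score 50 or more; control wells not called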. Meaning of the calls: active = hit (p65 shift raised or lowered); inactive = no clear change.
Shown is a random part of about 17,000 reagents. Of all reagents, 762 (4.5%) are marked active. 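Active calls include both raised and lowered p65 entry, mostly lowered; wells with fewer than 50 cells lack a z-score.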 Raw values are not corrected between plates. The numbers tell different reagents against one gene apart. No sequences are given here.

After knock-down of 3010003L21Rik the results were nuclear/cytoplasmic p65 ratio, rep 1 = 1.14; nuclear/cytoplasmic p65 ratio, rep 2 = 1.03; low cell count flag fewer than 50 cells per well; well left out of scoring; inactive.
Syt13 showed nuclear/cytoplasmic p65 ratio, rep 1 = 1.5; nuclear/cytoplasmic p65 ratio, rep 2 = 1.21; low cell count flag fewer than 50 cells per well; well left out of scoring; inactive.
Depletion of Lratd1 came out at: p65 translocation robust z-score -0.89; nuclear/cytoplasmic p65 ratio, rep 1 = 1.27; nuclear/cytoplasmic p65 ratio, rep 2 = 1.59; low cell count flag enough cells to score; inactive.
After knock-down of Or2g25 the results were p65 translocation robust z-score -0.91; nuclear/cytoplasmic p65 ratio, rep 1 = 1.54; nuclear/cytoplasmic p65 ratio, rep 2 = 1.42; low cell count flag enough cells to score; inactive.
Fam221a scored p65 translocation robust z-score -0.47; nuclear/cytoplasmic p65 ratio, rep 1 = 1.4; nuclear/cytoplasmic p65 ratio, rep 2 = 1.58; low cell count flag enough cells to score; inactive.
Depletion of 9230106D20Rik (retired record) gave: nuclear/cytoplasmic p65 ratio, rep 1 = 1.4; nuclear/cytoplasmic p65 ratio, rep 2 = 1.63; low cell count flag fewer than 50 cells per well; well left out of scoring; inactive.
For Tbcb, the values are p65 translocation robust z-score -0.95; nuclear/cytoplasmic p65 ratio, rep 1 = 1.5; nuclear/cytoplasmic p65 ratio, rep 2 = 1.57; low cell count flag enough cells to score; inactive.
Lce1g gave p65 translocation robust z-score -1.05; nuclear/cytoplasmic p65 ratio, rep 1 = 1.35; nuclear/cytoplasmic p65 ratio, rep 2 = 1.2; low cell count flag enough cells to score; inactive.
For Kng1, the entry reads p65 translocation robust z-score 0.84; nuclear/cytoplasmic p65 ratio, rep 1 = 1.61; nuclear/cytoplasmic p65 ratio, rep 2 = 1.47; low cell count flag enough cells to score; inactive.
After knock-down of Ifi44l, the record shows nuclear/cytoplasmic p65 ratio, rep 1 = 1.62; nuclear/cytoplasmic p65 ratio, rep 2 = 1.32; low cell count flag fewer than 50 cells per well; well left out of scoring; inactive.
For Pggt1b the deposit lists p65 translocation robust z-score 1.23; nuclear/cytoplasmic p65 ratio, rep 1 = 1.7; nuclear/cytoplasmic p65 ratio, rep 2 = 1.54; low cell count flag enough cells to score; inactive.
After knock-down of Ttc29, the record shows p65 translocation robust z-score -0.32; nuclear/cytoplasmic p65 ratio, rep 1 = 1.38; nuclear/cytoplasmic p65 ratio, rep 2 = 1.35; low cell count flag enough cells to score; inactive.
Silencing of Dipk2b resulted in: p65 translocation robust z-score -0.87; nuclear/cytoplasmic p65 ratio, rep 1 = 1.19; nuclear/cytoplasmic p65 ratio, rep 2 = 1.17; low cell count flag enough cells to score; inactive.
After knock-down of Sntb2, the record shows p65 translocation robust z-score -0.9; nuclear/cytoplasmic p65 ratio, rep 1 = 1.3; nuclear/cytoplasmic p65 ratio, rep 2 = 1.12; low cell count flag enough cells to score; inactive.
Silencing of Ranbp9 gave: p65 translocation robust z-score 1.23; nuclear/cytoplasmic p65 ratio, rep 1 = 1.64; nuclear/cytoplasmic p65 ratio, rep 2 = 1.74; low cell count flag enough cells to score; inactive.
With knock-down of E130113K22RIK the results were p65 translocation robust z-score 1.41; nuclear/cytoplasmic p65 ratio, rep 1 = 1.65; nuclear/cytoplasmic p65 ratio, rep 2 = 1.54; low cell count flag enough cells to score; inactive.

Reformatted: results already given.
gene	reagent	p65 translocation robust z-score	nuclear/cytoplasmic p65 ratio, rep 1	nuclear/cytoplasmic p65 ratio, rep 2	low cell count flag	outcome
Tbcb	1	-0.95	1.5	1.57	enough cells to score	inactive
Lce1g	1	-1.05	1.35	1.2	enough cells to score	inactive

The results go on.
Tbx3 scored p65 translocation robust z-score -0.38; nuclear/cytoplasmic p65 ratio, rep 1 = 1.49; nuclear/cytoplasmic p65 ratio, rep 2 = 1.44; low cell count flag enough cells to score; inactive.
Silencing of Coa5 #1 came out at: p65 translocation robust z-score -0.75; nuclear/cytoplasmic p65 ratio, rep 1 = 1.3; nuclear/cytoplasmic p65 ratio, rep 2 = 1.24; low cell count flag enough cells to score; inactive.
After knock-down of Coa5 #2, the screen gave p65 translocation robust z-score -0.43; nuclear/cytoplasmic p65 ratio, rep 1 = 1.26; nuclear/cytoplasmic p65 ratio, rep 2 = 1.46; low cell count flag enough cells to score; inactive.
Reg2 gave p65 translocation robust z-score -0.75; nuclear/cytoplasmic p65 ratio, rep 1 = 1.24; nuclear/cytoplasmic p65 ratio, rep 2 = 1.2; low cell count flag enough cells to score; inactive.
For Ulk2 the deposit lists p65 translocation robust z-score 0.48; nuclear/cytoplasmic p65 ratio, rep 1 = 1.68; nuclear/cytoplasmic p65 ratio, rep 2 = 1.44; low cell count flag enough cells to score; inactive.
Sh3rf3 gave p65 translocation robust z-score -0.69; nuclear/cytoplasmic p65 ratio, rep 1 = 1.19; nuclear/cytoplasmic p65 ratio, rep 2 = 1.18; low cell count flag enough cells to score; inactive.
Tmod2 scored p65 translocation robust z-score -0.36; nuclear/cytoplasmic p65 ratio, rep 1 = 1.31; nuclear/cytoplasmic p65 ratio, rep 2 = 1.16; low cell count flag enough cells to score; inactive.
With knock-down of Scnn1a, the screen gave p65 translocation robust z-score 0.59; nuclear/cytoplasmic p65 ratio, rep 1 = 1.49; nuclear/cytoplasmic p65 ratio, rep 2 = 1.79; low cell count flag enough cells to score; inactive.
For Rai1 the deposit lists p65 translocation robust z-score -0.63; nuclear/cytoplasmic p65 ratio, rep 1 = 1.47; nuclear/cytoplasmic p65 ratio, rep 2 = 1.39; low cell count flag enough cells to score; inactive.
After knock-down of Arhgap12, the screen gave p65 translocation robust z-score 0.96; nuclear/cytoplasmic p65 ratio, rep 1 = 1.59; nuclear/cytoplasmic p65 ratio, rep 2 = 1.8; low cell count flag enough cells to score; inactive.
After knock-down of Ankef1, the screen gave p65 translocation robust z-score -1.07; nuclear/cytoplasmic p65 ratio, rep 1 = 1.47; nuclear/cytoplasmic p65 ratio, rep 2 = 1.45; low cell count flag enough cells to score; inactive.
